From PubChem BioAssay AID1117319 (Southern Research Institute, 2015)
Among all 260,000 compounds or so, about 1,500 (0.58%) were called active. Inconclusive results, whose numbers are uncertain, are shown with a selection of clear calls.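 How the source made its calls: active means inhibition above a set limit at one or more doses, reproduced on every date tested; inconclusive means results disagree between test dates, or hit never tested in dose response; inactive means the rest.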

Chains of the proteins cited; added tags and fusions are not shown. Lines headed by an entry give the natural chain unless they say otherwise; changes in a name come on top.
UniProt P69720: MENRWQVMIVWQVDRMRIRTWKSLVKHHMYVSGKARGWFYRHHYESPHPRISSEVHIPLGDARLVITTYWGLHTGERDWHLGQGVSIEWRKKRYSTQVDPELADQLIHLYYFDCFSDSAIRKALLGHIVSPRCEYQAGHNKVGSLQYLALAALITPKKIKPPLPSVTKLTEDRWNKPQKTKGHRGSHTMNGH
UniProt P69721: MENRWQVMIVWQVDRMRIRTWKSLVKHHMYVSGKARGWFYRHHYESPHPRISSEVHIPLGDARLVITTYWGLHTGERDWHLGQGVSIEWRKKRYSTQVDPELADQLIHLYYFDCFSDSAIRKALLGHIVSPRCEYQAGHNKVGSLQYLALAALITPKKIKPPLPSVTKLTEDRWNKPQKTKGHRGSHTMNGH
UniProt P69722: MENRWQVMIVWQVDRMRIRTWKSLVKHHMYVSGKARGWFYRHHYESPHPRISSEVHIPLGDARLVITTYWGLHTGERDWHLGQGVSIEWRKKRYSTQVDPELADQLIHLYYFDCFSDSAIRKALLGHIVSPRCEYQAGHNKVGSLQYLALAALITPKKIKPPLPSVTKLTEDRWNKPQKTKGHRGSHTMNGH
UniProt P69723: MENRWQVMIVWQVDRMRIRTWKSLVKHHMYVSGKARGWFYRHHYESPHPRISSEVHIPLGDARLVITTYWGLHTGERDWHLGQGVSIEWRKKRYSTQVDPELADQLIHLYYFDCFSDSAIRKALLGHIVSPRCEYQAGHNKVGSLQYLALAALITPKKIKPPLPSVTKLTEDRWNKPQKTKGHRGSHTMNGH
UniProt Q9HC16: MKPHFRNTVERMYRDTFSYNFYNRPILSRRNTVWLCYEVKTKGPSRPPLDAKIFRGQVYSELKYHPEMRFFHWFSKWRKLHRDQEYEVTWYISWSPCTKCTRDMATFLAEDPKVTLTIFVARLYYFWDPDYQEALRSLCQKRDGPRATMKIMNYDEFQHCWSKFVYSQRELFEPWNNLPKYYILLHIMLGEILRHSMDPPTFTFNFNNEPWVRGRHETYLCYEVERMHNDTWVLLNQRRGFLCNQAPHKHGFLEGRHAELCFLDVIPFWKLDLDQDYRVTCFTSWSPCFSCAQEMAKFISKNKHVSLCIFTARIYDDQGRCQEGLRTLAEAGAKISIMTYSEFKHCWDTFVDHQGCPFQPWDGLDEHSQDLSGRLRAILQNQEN

molecular target: Virion infectivity factor (Human immunodeficiency virus type 1 group M subtype B (isolate BH10)) + Virion infectivity factor (Human immunodeficiency virus type 1 group M subtype B (isolate BRU/LAI)) + Virion infectivity factor (Human immunodeficiency virus type 1 group M subtype B (isolate PCV12)) + Virion infectivity factor (Human immunodeficiency virus type 1 group M subtype B (isolate HXB2)) + DNA dC->dU-editing enzyme APOBEC-3G (Homo sapiens) (UniProt P69720+P69721+P69722+P69723+Q9HC16); assay: inhibitors of Vif binding to APOBEC3G peptide, primary screen, biochemical, TR-FRET, GST-Vif 1-94, biotin-A3G peptide, dose response retest (AID 1117319); settings: active compounds read high;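 further: Vif residues 1-94 fused to GST binding biotinylated APOBEC3G peptide 110-148; 0% = full assay without inhibitor and 100% = GST in place of GST-Vif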

Row | SMILES | inhibition
1 | O=C(CC1SC(N2CCCCC2)=NC1=O)Nc1ccc(C(=O)O)cc1 (stereo not drawn) | inconclusive: 45.1%
2 | CC1=NNC(=O)C1Oc1ccccc1 (stereo not drawn) | inconclusive: 60.5%
3 | COc1ccccc1Nc1nc(-c2cccc([N+](=O)[O-])c2)cs1 | inconclusive: 47.2%
4 | Nc1cc(N)nc(SCc2nnnn2-c2ccc(Cl)cc2)n1 | inconclusive: 34%
5 | COc1ccccc1C1C2=C(COC2=O)Nc2cc3c(cc21)OCO3 (stereo not drawn) | inconclusive: 58.6%
6 | CCOc1ccc(OCc2nnc(SCC(=O)NC3CCS(=O)(=O)C3)n2-c2ccc(Cl)cc2)cc1 (stereo not drawn) | inconclusive: 61%
7 | O=C(NNC(=O)c1cc2cc(Br)ccc2oc1=O)c1ccc(O)cc1O | inconclusive: 39.2%
8 | CC(C)NC(=O)C1CCN(C2CCN(Cc3cn[nH]c3-c3ccccc3)CC2)CC1 | inconclusive: 50.3%
9 | O=Cc1cn(-c2ccccc2)nc1-c1ccc(F)cc1 | inconclusive: 35.7%
10 | CC(=O)c1sc2nc(C)c3c(c2c1N)CCCC3 | inconclusive: 44.4%
11 | CC12CC3(C)CC(C)(C1)CC(C(=O)NC(=S)N1CCOCC1)(C2)C3 | inconclusive: 41.5%
12 | CCCCNC(=O)c1onc(CCl)c1C(=O)OC | inconclusive: 46.1%
13 | CCOC(=O)C1(C)NC(c2ccco2)C2C(=O)N(C)C(=O)C21 (stereo not drawn) | inactive: 2.73%
14 | COc1ccc(C(CNC(=O)C2COc3ccccc3O2)N2CCCC2)cc1 (stereo not drawn) | inconclusive: 37%
15 | COc1ccc(-c2csc(NC3=NCCCCC3)n2)cc1 | inactive: -3.94%
16 | CCN(CC)S(=O)(=O)c1cc(NC(=O)C(C)N2CCN(c3ccccn3)CC2)ccc1C (stereo not drawn) | inconclusive: 43.1%
17 | C=CCNCCCCOc1ccc(OCC)cc1 | inconclusive: 55.4%
18 | Cc1cccc(NC(=O)CNC(=O)c2ccc3nc[nH]c3c2)c1C | inactive: 9.97%
19 | N#C/C(=C\C=C\c1ccccc1)C(=O)NCc1ccco1 | inconclusive: 48.8%
20 | COc1ccc(N2CCN(C(=O)C3CCN(S(=O)(=O)N4CCOCC4)CC3)CC2)cc1 | inconclusive: 33.4%

Two entries picked at random from the list so far, as already listed:
Row | SMILES | inhibition
12 | CCCCNC(=O)c1onc(CCl)c1C(=O)OC | inconclusive: 46.1%
11 | CC12CC3(C)CC(C)(C1)CC(C(=O)NC(=S)N1CCOCC1)(C2)C3 | inconclusive: 41.5%

The results go on:

Row | SMILES | inhibition
21 | COc1ccc(OC)c(S(=O)(=O)n2cnc3ccccc32)c1 | inconclusive: 46.3%
22 | CCNC(=O)CCn1nc(-c2ccc(Cl)cc2)c2ccccc2c1=O | inconclusive: 23.3%
23 | Cc1cc(C(c2ccc(C)o2)c2ccc(C)o2)c(O)c([N+](=O)[O-])c1 | inconclusive: 54.7%
24 | COC(=O)CSc1nnc(CNC(=O)c2cc(OC)c(OC)c(OC)c2)n1C | inconclusive: 55.3%
25 | O=C(OCc1c(Cl)cccc1Cl)c1cccnc1 | inconclusive: 37.7%
26 | NS(=O)(=O)c1cc2c(cc1Cl)NC(CSCc1ccccc1)=NS2(=O)=O | inconclusive: 46.4%
27 | O=C(/C=C/c1cccc([N+](=O)[O-])c1)NCc1cccnc1 | inconclusive: 15.5%
28 | CC(=O)Nc1ccc(NC(=O)C2CCN(C(=O)c3ccc([N+](=O)[O-])cc3)CC2)cc1 | inconclusive: 40.6%
29 | COCCNC(=O)C(OC(=O)c1ccco1)c1ccccc1OC (stereo not drawn) | inconclusive: 31.5%
30 | Fc1ccc(Cn2nnc(-c3ccc(CN4CCOCC4)cc3)n2)cc1 | inconclusive: 39.8%
31 | O=C(CSCc1c(Cl)cccc1Cl)NN=C1CCCC1 | inactive: 15.1%
32 | Cc1cc(NS(=O)(=O)c2ccc(N)cc2)no1 | inconclusive: 36.4%
33 | O=c1[nH][nH]c(C(F)(F)F)c1C=Nc1ccc(Cl)cc1 | inconclusive: 41.8%
34 | Cc1cc(C(=O)NNC(=S)Nc2ccccc2C)cs1 | inconclusive: 36.4%
35 | CCn1c(SCC(=O)NCc2ccco2)nnc1-c1ccc(N)cc1 | inconclusive: 53%
36 | CC(CCO)Nc1nc2c(c(=O)n(C)c(=O)n2C)n1Cc1cccc(Br)c1 (stereo not drawn) | inconclusive: 25.6%
37 | Cn1ccc(=S)c2ccccc21 | inconclusive: 38.5%
38 | COc1cccc(-c2cc3c(=O)n(-c4ccccc4)c(=S)[nH]c3s2)c1 | inactive: -16.9%
39 | COCCCNC(=O)CCCOc1ccccc1 | inconclusive: 34%
40 | Cc1ccc(C)n1-n1cnc2sc3c(c2c1=O)CCCCC3 | inconclusive: 39.8%

Row | SMILES | inhibition
41 | OC1CCCN(Cc2ccc3ccc4cccc5ccc2c3c45)C1 (stereo not drawn) | inconclusive: 42.5%
42 | CCN(CC)C(c1ccc(F)cc1)c1nnnn1C1CCCCC1 (stereo not drawn) | inconclusive: 3.29%
43 | CCN(CC)S(=O)(=O)c1ccc(Oc2ccccc2)cc1 | inconclusive: 51.5%
44 | COC(=O)COc1cccc2c(=O)n(CC(=O)N3CCCc4ccccc43)ccc12 | inconclusive: 57.9%
45 | Clc1ccc(-c2nc3nc4ccccc4nc3n2Cc2ccco2)cc1 | inconclusive: 58.6%
46 | COC(=O)C1(CCSC)NC(c2ccc(O)cc2)C2C(=O)N(c3ccc4c(c3)OCCO4)C(=O)C21 (stereo not drawn) | inconclusive: 54.9%
47 | CCOc1ccccc1NC(=O)C(NCC1(N2CCCCC2)CCCCC1)c1ccccc1 (stereo not drawn) | inconclusive: 59.2%
48 | Cc1ccnc(SCC(=O)N2CCN(c3ccccc3)CC2)n1 | inconclusive: 36.2%
49 | Cc1nc2sccn2c(=O)c1CCN1CCC(=C(c2ccccc2)c2ccc(F)cc2)CC1 | inconclusive: 35.1%
50 | Cc1ccc(C)c(N2CCN(C(=O)c3cc4c(C)nc5ccccc5c4o3)CC2)c1 | inconclusive: 42.3%
51 | CC(=O)N1CC(C)Sc2ccc(S(=O)(=O)NCc3ccccc3Cl)cc21 (stereo not drawn) | inconclusive: 33.3%
52 | CCCCCC(=O)Nc1cccc(C2=NOC3(C2)C[C@@H](C(N)=O)N(C(=O)Cc2ccc([N+](=O)[O-])cc2)C3)c1 (stereo partly drawn) | inconclusive: 63.1%
53 | CC(C)c1ccc(S(=O)(=O)Nc2ccc(SC(F)F)cc2)cc1 | inconclusive: 44.8%
54 | CSc1nnc2c(n1)OC(C)N(C(=O)c1ccccc1)c1ccccc1-2 (stereo not drawn) | inconclusive: 40.2%
55 | CC(=O)c1ccc(-c2nc3c4ccccc4ccn3c2C(C)=O)o1 | inconclusive: 50%
56 | C=C(C)Cn1c(SCCCO)nc2c1c(=O)[nH]c(=O)n2C | inconclusive: 35.1%
57 | COC(=O)CSc1nnc(NC(=O)c2ccc3c(c2)OCO3)s1 | inconclusive: 45%
58 | Cc1cc(C(=O)c2ccc(Cl)cc2)c(NC(=O)CCl)s1 | inconclusive: 40.9%

Shown as tab-separated lines: 2 of the compounds above.
Row	SMILES	inhibition
52	CCCCCC(=O)Nc1cccc(C2=NOC3(C2)C[C@@H](C(N)=O)N(C(=O)Cc2ccc([N+](=O)[O-])cc2)C3)c1 (stereo partly drawn)	inconclusive: 63.1%
53	CC(C)c1ccc(S(=O)(=O)Nc2ccc(SC(F)F)cc2)cc1	inconclusive: 44.8%
